# PubChem BioAssay AID1259308 | NCATS, 2017
# Assay: 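Candidate targets for better recombinant protein yield in mammalian cells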 (primary screen)
# Cells: human HEK293 embryonic kidney cells stably expressing firefly luciferase (HEK-CMV-Luc2-Hygro)
# Reagent: single siRNA against human genes, 0.8 pmol siRNA per well
# Time to read-out: 72 h
# Measured: 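Reporter luminescence and viable-cell signal on separate replicate plates, given as percent of non-targeting control and median/MAD z-scores, plus per-cell luciferase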
# Direction: total luciferase, z-score and total luciferase, % of control: higher = more reporter protein produced
# Hit rule: 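Active when the median/MAD z-score for overall luciferase is greater than 3; a gene was taken forward for validation with new siRNAs if at least two of its three siRNAs passed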
# Calls: active = raised luciferase; inactive = no rise
# The whole screen tested about 59,000 reagents; this is a part drawn at random. About 1,510 of all reagents (2.6%) were called active. 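Calls use total luciferase alone and ignore viability, so some active siRNAs may act by altering cell number.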 Reagents against one gene are numbered here. Not all columns of the deposit are shown.
Gene,reagent,"total luciferase, z-score","total luciferase, % of control",Outcome
ATXN2 (ataxin 2),1,0.313,88.1,inactive
ATXN2 (ataxin 2),2,0.895,99.7,inactive
ATXN2 (ataxin 2),3,1.43,110,inactive
OR5P2 (olfactory receptor family 5 subfamily P member 2),1,-0.333,75.3,inactive
OR5P2 (olfactory receptor family 5 subfamily P member 2),2,-0.213,77.6,inactive
OR5P2 (olfactory receptor family 5 subfamily P member 2),3,0.673,95.3,inactive
ITGB6 (integrin subunit beta 6),1,-0.621,69.5,inactive
ITGB6 (integrin subunit beta 6),2,-0.295,76,inactive
ITGB6 (integrin subunit beta 6),3,-2.02,41.6,inactive
SALL2 (spalt like transcription factor 2),1,2,122,inactive
SALL2 (spalt like transcription factor 2),2,-0.753,66.9,inactive
SALL2 (spalt like transcription factor 2),3,-0.987,62.3,inactive
TRIB3 (tribbles pseudokinase 3),1,-0.0994,79.9,inactive
TRIB3 (tribbles pseudokinase 3),2,-0.671,68.5,inactive
TRIB3 (tribbles pseudokinase 3),3,-0.805,65.9,inactive
ZNF274 (zinc finger protein 274),1,0.039,82.7,inactive
ZNF274 (zinc finger protein 274),2,-0.92,63.6,inactive
ZNF274 (zinc finger protein 274),3,-0.932,63.4,inactive
GOSR2 (golgi SNAP receptor complex member 2),1,-0.032,81.2,inactive
GOSR2 (golgi SNAP receptor complex member 2),2,0.241,86.7,inactive
GOSR2 (golgi SNAP receptor complex member 2),3,1.01,102,inactive
RSKR (ribosomal protein S6 kinase related),1,2.98,141,inactive
RSKR (ribosomal protein S6 kinase related),2,0.0435,82.8,inactive
RSKR (ribosomal protein S6 kinase related),3,-0.663,68.7,inactive
RSKR (ribosomal protein S6 kinase related),4,-0.603,69.9,inactive
RSKR (ribosomal protein S6 kinase related),5,-0.556,70.8,inactive
RSKR (ribosomal protein S6 kinase related),6,1.86,119,inactive
"RNFT2 (ring finger protein, transmembrane 2)",1,-0.368,74.6,inactive
"RNFT2 (ring finger protein, transmembrane 2)",2,0.607,94,inactive
"RNFT2 (ring finger protein, transmembrane 2)",3,-0.884,64.3,inactive
COG3 (component of oligomeric golgi complex 3),1,0.159,85,inactive
COG3 (component of oligomeric golgi complex 3),2,-0.138,79.1,inactive
COG3 (component of oligomeric golgi complex 3),3,-2.1,40.1,inactive
GSTT2 (glutathione S-transferase theta 2 (gene/pseudogene)),1,0.795,97.7,inactive
GSTT2 (glutathione S-transferase theta 2 (gene/pseudogene)),2,0.263,87.1,inactive
GSTT2 (glutathione S-transferase theta 2 (gene/pseudogene)),3,0.364,89.1,inactive
FBXO24 (F-box protein 24),1,-0.305,75.8,inactive
FBXO24 (F-box protein 24),2,-0.592,70.1,inactive
FBXO24 (F-box protein 24),3,0.22,86.3,inactive
ITM2B (integral membrane protein 2B),1,0.0345,82.6,inactive
ITM2B (integral membrane protein 2B),2,0.0533,82.9,inactive
ITM2B (integral membrane protein 2B),3,-0.209,77.7,inactive
ZNF560 (zinc finger protein 560),1,1.31,108,inactive
ZNF560 (zinc finger protein 560),2,0.358,89,inactive
ZNF560 (zinc finger protein 560),3,-0.305,75.8,inactive
DERL1 (derlin 1),1,0.666,95.1,inactive
DERL1 (derlin 1),2,0.212,86.1,inactive
DERL1 (derlin 1),3,-2.27,36.7,inactive
PALM (paralemmin),1,3.95,160,active
PALM (paralemmin),2,0.481,91.4,inactive
PALM (paralemmin),3,-1.83,45.4,inactive
OR2T27 (olfactory receptor family 2 subfamily T member 27),1,-1.76,46.9,inactive
OR2T27 (olfactory receptor family 2 subfamily T member 27),2,-0.564,70.7,inactive
OR2T27 (olfactory receptor family 2 subfamily T member 27),3,-0.315,75.6,inactive
PPP1R1C (protein phosphatase 1 regulatory inhibitor subunit 1C),1,0.855,98.9,inactive
PPP1R1C (protein phosphatase 1 regulatory inhibitor subunit 1C),2,0.0965,83.8,inactive
PPP1R1C (protein phosphatase 1 regulatory inhibitor subunit 1C),3,2.09,124,inactive
